Assay results: publication doi:10.1101/2024.04.12.589178
No constants are given. Whether binding was seen depends on the method and setting. In cells and extracts the contact can be indirect. Some entries that bind do so weakly or less than the wild type.

Amino acid sequences for entries named in this document (tags omitted). Residues count along the entry.
UniProt P30405, residues 30-207: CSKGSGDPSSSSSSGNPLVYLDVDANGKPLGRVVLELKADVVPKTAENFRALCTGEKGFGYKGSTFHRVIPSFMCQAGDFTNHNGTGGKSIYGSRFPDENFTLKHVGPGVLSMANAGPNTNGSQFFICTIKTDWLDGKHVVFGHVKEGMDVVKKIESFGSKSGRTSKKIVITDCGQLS

Legend:
Test in all cases: co-IP
[1] = molecular target: T1, MIC19 (human (endogenous in HEK293T)) (UniProt Q9NX63)
T1 sequence: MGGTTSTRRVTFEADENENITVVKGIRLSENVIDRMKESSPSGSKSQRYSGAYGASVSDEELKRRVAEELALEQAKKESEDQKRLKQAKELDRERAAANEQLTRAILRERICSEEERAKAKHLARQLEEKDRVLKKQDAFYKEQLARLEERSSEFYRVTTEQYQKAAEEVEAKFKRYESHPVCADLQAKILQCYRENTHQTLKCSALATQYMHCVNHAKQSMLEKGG

[2] = molecular target: CyclophilinD (human (endogenous in HEK293T)) (UniProt P30405)
[3] = molecular target: T2, MIC60 (human (endogenous in HEK293T)) (UniProt Q16891)
T2 sequence: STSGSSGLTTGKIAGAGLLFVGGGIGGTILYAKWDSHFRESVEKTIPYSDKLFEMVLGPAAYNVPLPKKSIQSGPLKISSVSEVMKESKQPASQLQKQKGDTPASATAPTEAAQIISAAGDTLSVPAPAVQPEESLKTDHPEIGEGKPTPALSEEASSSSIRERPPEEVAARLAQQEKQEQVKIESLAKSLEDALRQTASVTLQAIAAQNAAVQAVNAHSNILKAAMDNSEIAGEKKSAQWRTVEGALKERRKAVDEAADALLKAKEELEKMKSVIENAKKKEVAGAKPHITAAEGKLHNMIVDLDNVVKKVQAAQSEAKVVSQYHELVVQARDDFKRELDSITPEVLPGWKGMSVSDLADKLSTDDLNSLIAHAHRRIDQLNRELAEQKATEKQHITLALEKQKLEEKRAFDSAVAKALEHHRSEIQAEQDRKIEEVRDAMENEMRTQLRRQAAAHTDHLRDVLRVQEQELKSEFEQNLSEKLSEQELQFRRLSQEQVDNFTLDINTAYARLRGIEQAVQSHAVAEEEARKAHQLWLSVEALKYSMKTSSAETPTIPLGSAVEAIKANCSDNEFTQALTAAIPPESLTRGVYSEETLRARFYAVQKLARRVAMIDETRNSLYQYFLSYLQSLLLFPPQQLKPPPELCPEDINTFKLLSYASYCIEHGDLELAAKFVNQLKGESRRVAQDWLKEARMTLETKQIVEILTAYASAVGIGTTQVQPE

Measured: binding

B1: MPV17-BirA* (protein, UniProt P39210 1-176)
chain: MALWRAYQRALAAHPWKVQVLTAGSLMGLGDIISQQLVERRGLQEHQRGRTLTMVSLGCGFVGPVVGGWYKVLDRFIPGTTKVDALKKMLLDQGGFAPCFLGCFLPLVGALNGLSAQDNWAKLQRDYPDALITNYYLWPAVQLANFYLVPLHYRLAVVQCVAVIWNSYLSWKAHRL
binds: all assays above
